Data on 2 sequences can be found in PMC4685197.

Chains of the proteins cited; added tags and fusions are not shown. Residues count along the entry.
UniProt P16422, 24-314: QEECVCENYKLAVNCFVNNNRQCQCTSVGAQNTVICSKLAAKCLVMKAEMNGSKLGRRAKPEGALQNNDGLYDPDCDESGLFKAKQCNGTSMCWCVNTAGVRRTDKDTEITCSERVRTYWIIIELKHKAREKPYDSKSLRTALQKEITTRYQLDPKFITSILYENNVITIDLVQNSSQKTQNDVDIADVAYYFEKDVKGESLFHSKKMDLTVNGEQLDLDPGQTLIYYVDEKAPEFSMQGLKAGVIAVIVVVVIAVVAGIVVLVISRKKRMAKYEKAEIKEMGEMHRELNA

For series [1], the target named is EpCAM (epithelial cell adhesion molecule), endogenous in tissue sections (human (patient tissue)) (UniProt P16422). Kind of series: immunofluorescence staining of tissue sections. As to conditions: 250 nM aptamer, sections blocked with 1 uM random sequence, random-sequence pool negative; 3' (PEG)3 spacer; Deparaffinized, antigen-retrieved tissue sections; binding buffer (composition not given); 250 nM aptamer for 1 h (Cy3, temperature not stated) or 30 min at 37 C; native protein; label: 3' Cy3; single-stranded DNA.

Series [2] shares this target. Kind of series: immunofluorescence co-staining of tissue sections with antibody. As to conditions: 250 nM aptamer, no competition, Deparaffinized, antigen-retrieved tissue sections, binding buffer (composition not given), 250 nM aptamer for 1 h (Cy3, temperature not stated) or 30 min at 37 C, native protein, single-stranded DNA.

The exact form of at least one protein or probe is not confirmed. At least one verdict rests on a figure or table, not on a statement of the authors.

As to “CACTACAGAGGTTGCGTCTGTCCCACGTTGTCATGGGGGGTTGGCCTG [SYL3C-Cy3]”, the binding result in series [1] was “binds”.
For the sequence “CACTACAGAGGTTGCGTCTGTCCCACGTTGTCATGGGGGGTTGGCCTG [SYL3C-FITC]”, the binding result in series [2] (anti-EpEX (MOC-31) pre-bound) and in series [2] (anti-EpICD (E144) pre-bound) was “binds” each time.
